Assay results: PubChem BioAssay AID540276 (National Center for Advancing Translational Sciences (NCATS), 2011)
About 5,400 (1.8%) of roughly 300,000 compounds were called active. The inconclusive results got no clear call from the source; some entries with a clear call stand among them for comparison. Calls follow the shape of the full dose curve; tested in HEK293 cells. Potencies beside an inconclusive call are fits to weak or partial responses and may not hold up.

experiment: qHTS for inhibitors of binding or entry into cells for Marburg Virus; conditions: Marburg virus pseudotyped entry inhibition, cell reporter; series mostly up to 37.8 µM
Potency is read from the fitted curve at half-maximal effect.

Question: For `CC12CN3CCN(CC(C3)/C1=N/NC(=O)Nc1ccccc1)C2`, which Potency is on record?
Answer: inconclusive: 16.4 µM [activator, single point]

Question: Which Potency does the source give for `Nc1nc(SCC(=O)Nc2ccccc2Sc2ccccc2)n[nH]1` here?
Answer: inactive

Question: With `O=c1c2ccccc2nc(SCc2cn3ccsc3n2)n1-c1ccccc1F` as the compound, how does the Potency read?
Answer: inconclusive: 11.2 µM [inhibitor, single point]

Question: With `c1ccc(-c2cnc(C3CCCCC3)o2)cc1` as the compound, how does the Potency read?
Answer: inconclusive: 15.8 µM [activator, single point]

Question: For `CC(C)Cn1nc(C(=O)Nc2cccc(S(=O)(=O)N3CCCC3)c2)c2ccccc2c1=O`, which Potency is on record?
Answer: inconclusive: 15.8 µM [inhibitor, single point]

Question: With `O=C(CCC(=O)c1ccc(Br)cc1)Nc1cccc(C(F)(F)F)c1` as the compound, how does the Potency read?
Answer: inactive

Question: For `CC(C)C1CC(=O)NC(SCC(=O)Nc2ccc(Br)cc2)=C1C#N` (stereo not given), which Potency is on record?
Answer: inconclusive: 5.62 µM [activator, single point]

Question: Which Potency does the source give for `COc1cc(OC)cc(C(=O)NCCCNC(=O)c2ccccn2)c1` here?
Answer: inactive

Question: With `Cc1nn(C(C)C(=O)NCc2ccc(OC(C)C)cc2)c(=O)c2c1sc1ccccc12` (stereo not given) as the compound, how does the Potency read?
Answer: inactive

Question: Which Potency does the source give for `N[C@@H](Cc1ccccc1)C(=O)N1CCC(C(=O)NCC(=O)Nc2ccc(F)cc2)CC1` here?
Answer: inactive

Question: With `CC1(c2ccc(O)cc2)NC(=O)N(c2ccccc2)N1` (stereo not given) as the compound, how does the Potency read?
Answer: inconclusive: 35.5 µM [activator, single point]

Question: Which Potency does the source give for `COC1CCCN(Cc2nc(Cc3ccccc3F)no2)C1` (stereo not given) here?
Answer: inactive

Question: For `CCC(=O)N1CCc2cc(Br)cc(S(=O)(=O)N3CCCC(C(=O)Nc4ccc(C)c(F)c4)C3)c21` (stereo not given), which Potency is on record?
Answer: inconclusive: 5.62 µM [activator, single point]

Question: For `O=C(Nc1ccc2c(c1)CCC2)Nc1ccccc1Cl`, which Potency is on record?
Answer: inconclusive: 35.5 µM [inhibitor, single point]

Question: For `CS(=O)(=O)N(Cc1ccccc1)c1ccccn1`, which Potency is on record?
Answer: inactive

Question: Which Potency does the source give for `O=C(Nc1ccc2c(c1)OCCO2)c1cccnc1Oc1ccc(Cl)cc1` here?
Answer: inconclusive: 35.5 µM [inhibitor, single point]

Question: For `COC(=O)C1CCN(C(=O)COC(=O)c2n[nH]c3ccccc23)CC1`, which Potency is on record?
Answer: inconclusive: 16.4 µM [activator, single point]

Question: For `Cn1c(=O)n(CCOc2ccccc2Cl)c2ccccc21`, which Potency is on record?
Answer: inconclusive: 0.1 µM [activator, partial curve, poor fit]

Question: For `COC(=O)[C@H](CC(C)C)NC(=O)NC1CCCc2ccccc21` (stereo not given in full), which Potency is on record?
Answer: inactive

Question: Which Potency does the source give for `O=C(CCN=C1NS(=O)(=O)c2ccccc21)OCC(=O)c1ccccc1Cl` here?
Answer: inactive

Question: Which Potency does the source give for `COC(=O)C(NC(=O)CCc1nnc2ccc(N3CCCCC3)nn12)C(C)C` (stereo not given) here?
Answer: inconclusive: 7.94 µM [activator, partial curve]

Question: Which Potency does the source give for `CC1CC(C)CN(c2ncnc3c2cnn3Cc2ccc(Cl)cc2)C1` (stereo not given) here?
Answer: inconclusive: 35.5 µM [inhibitor, single point]

Question: With `CSc1ccccc1C(=O)Nc1ccc2c(c1)CCC2` as the compound, how does the Potency read?
Answer: inconclusive: 10 µM [inhibitor, partial curve, poor fit]

Question: For `N[C@@H](Cc1ccccc1)c1nnc(SC/C=C/c2ccccc2)o1`, which Potency is on record?
Answer: inconclusive: 5.62 µM [inhibitor, single point]

Question: With `CN1CCc2c(sc(N)c2C(=O)c2ccc(Cl)cc2)C1` as the compound, how does the Potency read?
Answer: inactive

Question: Which Potency does the source give for `C/C(=N\NC(=O)c1c(Br)cnn1C)c1ccc(NC(=O)c2ccc(F)cc2)cc1` here?
Answer: inconclusive: 29.1 µM [inhibitor, single point]

Question: For `CN1CCN(c2ccc(NC(=O)c3ccc(-c4ccccc4F)o3)cc2)CC1`, which Potency is on record?
Answer: inconclusive: 22.4 µM [inhibitor, single point]

Question: For `CCCn1nnc(NC(=S)NC(=O)c2cccs2)n1`, which Potency is on record?
Answer: inconclusive: 25.1 µM [activator, single point]

Question: With `CCOC(=O)c1sc(=S)n(-c2ccccc2OC)c1N` as the compound, how does the Potency read?
Answer: inactive

Question: Which Potency does the source give for `COc1cc(CNCCN2CCOCC2)ccc1OCc1ccc(Cl)cc1` here?
Answer: inconclusive: 35.5 µM [inhibitor, single point]

Question: For `Cc1ccc(OCC(=O)Nc2ccc(OCc3cc(=O)n4ccsc4n3)cc2)cc1C`, which Potency is on record?
Answer: inactive

Question: For `O=C(c1ccc(C(F)(F)F)cc1)N1CCN(c2ccc(N3CCOCC3)nn2)CC1`, which Potency is on record?
Answer: inconclusive: 8.91 µM [activator, partial curve, poor fit]

Question: For `O=C(NCc1ccccn1)c1cccc(NS(=O)(=O)c2cccc(Cl)c2)c1`, which Potency is on record?
Answer: inconclusive: 2.91 µM [activator, full curve, poor fit]

Question: Which Potency does the source give for `CCN1C(=O)NC(=O)/C(=C\c2ccc(N3CCOCC3)cc2OC)C1=O` here?
Answer: inactive

Question: For `Cc1cccc(CSc2cn(CC(=O)N3CCOCC3)c3ccccc23)c1`, which Potency is on record?
Answer: inconclusive: 3.16 µM [activator, partial curve, poor fit]

Question: For `C/C(=N\O)C(=O)NCc1ccncc1`, which Potency is on record?
Answer: inconclusive: 12.6 µM [activator, partial curve]

Question: For `Cn1c(=O)n(CCOc2ccc(Cl)cc2Cl)c2ccccc21`, which Potency is on record?
Answer: inactive

Question: With `CCCNC(=O)c1ccc2c(c1)N=C(CCC)c1ccccc1S2` as the compound, how does the Potency read?
Answer: inconclusive: 0.891 µM [inhibitor, full curve, poor fit]

Question: With `CSc1nn2c(C(F)(F)F)cc(C(F)(F)F)nc2c1C(=O)O` as the compound, how does the Potency read?
Answer: inconclusive: 0.794 µM [inhibitor, single point]

Question: For `c1ccc2[nH]c(-c3nc4ccccc4[nH]3)nc2c1`, which Potency is on record?
Answer: inconclusive: 32.6 µM [inhibitor, single point]

Question: With `Cc1cccc(C(=O)N(C(=O)c2cccc(C)c2)N(C)C)c1` as the compound, how does the Potency read?
Answer: inconclusive: 7.08 µM [inhibitor, partial curve, poor fit]

Question: With `Nc1nc(-c2ccc3ccccc3c2)cs1` as the compound, how does the Potency read?
Answer: inconclusive: 0.562 µM [activator, partial curve, poor fit]

Question: For `Cc1ccc(N=c2oc3cc(O)ccc3cc2C(N)=O)cc1`, which Potency is on record?
Answer: inconclusive: 3.98 µM [activator, single point]

Question: Which Potency does the source give for `CC(C)Cc1ccc(/C=C/C(=O)N2CCOCC2)cc1` here?
Answer: inconclusive: 3.98 µM [activator, partial curve]

Question: Which Potency does the source give for `Cc1ccc(S(=O)(=O)NCc2ccc(C(=O)N3CCN(c4ccccc4)CC3)cc2)cc1` here?
Answer: inconclusive: 5.01 µM [inhibitor, single point]
